Reference: the supplement of paper PMC10849652
Some of the results follow.

By UniProt entry, the sequences of proteins in these tests, tags left out. Where a name states a change or a piece, a line headed by the entry shows the natural chain unless it says otherwise.
UniProt P49790, whole entry, looked up: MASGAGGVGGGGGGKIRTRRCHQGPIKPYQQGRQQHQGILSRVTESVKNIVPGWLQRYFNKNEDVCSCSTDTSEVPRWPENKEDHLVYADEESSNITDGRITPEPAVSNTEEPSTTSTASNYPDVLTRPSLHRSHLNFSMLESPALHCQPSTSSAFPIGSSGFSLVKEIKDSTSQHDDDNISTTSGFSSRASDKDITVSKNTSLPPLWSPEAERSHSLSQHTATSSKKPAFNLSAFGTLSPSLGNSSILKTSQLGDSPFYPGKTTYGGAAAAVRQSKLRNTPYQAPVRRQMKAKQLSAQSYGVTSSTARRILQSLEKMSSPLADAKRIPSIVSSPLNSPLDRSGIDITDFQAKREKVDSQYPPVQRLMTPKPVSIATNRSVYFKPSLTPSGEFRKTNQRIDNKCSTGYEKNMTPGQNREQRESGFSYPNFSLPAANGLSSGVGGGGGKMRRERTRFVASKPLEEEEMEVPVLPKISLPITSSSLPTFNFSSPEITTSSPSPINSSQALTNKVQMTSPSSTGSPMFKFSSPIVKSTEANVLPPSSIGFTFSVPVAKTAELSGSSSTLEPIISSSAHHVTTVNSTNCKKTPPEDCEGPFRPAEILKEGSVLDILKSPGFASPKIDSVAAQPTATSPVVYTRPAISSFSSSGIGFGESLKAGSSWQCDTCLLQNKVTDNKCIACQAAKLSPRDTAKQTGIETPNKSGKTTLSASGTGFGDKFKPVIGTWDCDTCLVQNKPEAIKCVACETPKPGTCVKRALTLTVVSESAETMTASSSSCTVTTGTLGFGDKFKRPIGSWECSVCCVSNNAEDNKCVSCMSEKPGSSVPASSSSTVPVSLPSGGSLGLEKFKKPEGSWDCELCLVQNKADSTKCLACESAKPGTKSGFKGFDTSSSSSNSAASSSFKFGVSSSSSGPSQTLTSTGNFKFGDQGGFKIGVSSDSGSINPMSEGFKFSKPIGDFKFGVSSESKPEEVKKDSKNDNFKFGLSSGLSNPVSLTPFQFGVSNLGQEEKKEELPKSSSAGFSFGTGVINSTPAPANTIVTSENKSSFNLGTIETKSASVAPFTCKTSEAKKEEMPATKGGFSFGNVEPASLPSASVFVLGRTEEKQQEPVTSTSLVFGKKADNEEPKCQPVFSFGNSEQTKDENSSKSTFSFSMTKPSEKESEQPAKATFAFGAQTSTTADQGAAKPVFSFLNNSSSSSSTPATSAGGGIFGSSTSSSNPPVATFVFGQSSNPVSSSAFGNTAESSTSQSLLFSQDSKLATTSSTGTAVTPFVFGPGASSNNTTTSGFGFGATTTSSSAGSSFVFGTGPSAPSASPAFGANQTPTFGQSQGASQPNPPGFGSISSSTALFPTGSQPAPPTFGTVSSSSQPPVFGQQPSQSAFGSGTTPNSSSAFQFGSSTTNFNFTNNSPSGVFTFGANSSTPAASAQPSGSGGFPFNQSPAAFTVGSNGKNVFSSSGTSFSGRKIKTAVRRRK
UniProt P61970, whole entry, looked up: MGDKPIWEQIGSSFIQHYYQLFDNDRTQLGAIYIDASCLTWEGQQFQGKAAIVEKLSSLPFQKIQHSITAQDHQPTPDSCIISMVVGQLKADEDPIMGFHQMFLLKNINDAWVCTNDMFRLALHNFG
UniProt P13674: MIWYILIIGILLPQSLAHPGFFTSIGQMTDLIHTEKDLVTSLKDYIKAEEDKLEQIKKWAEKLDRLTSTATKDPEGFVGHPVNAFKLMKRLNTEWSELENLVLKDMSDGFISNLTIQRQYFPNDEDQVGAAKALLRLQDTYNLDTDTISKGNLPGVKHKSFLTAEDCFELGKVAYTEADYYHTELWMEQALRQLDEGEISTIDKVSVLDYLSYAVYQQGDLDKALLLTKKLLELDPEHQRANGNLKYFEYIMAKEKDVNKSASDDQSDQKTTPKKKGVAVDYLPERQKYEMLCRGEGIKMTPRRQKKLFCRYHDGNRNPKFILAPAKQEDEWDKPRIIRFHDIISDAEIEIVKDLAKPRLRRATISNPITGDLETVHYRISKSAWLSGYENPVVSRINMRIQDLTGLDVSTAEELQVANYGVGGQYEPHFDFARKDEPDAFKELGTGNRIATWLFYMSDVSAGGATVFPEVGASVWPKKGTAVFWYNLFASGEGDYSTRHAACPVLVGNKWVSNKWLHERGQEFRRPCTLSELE
UniProt P80303: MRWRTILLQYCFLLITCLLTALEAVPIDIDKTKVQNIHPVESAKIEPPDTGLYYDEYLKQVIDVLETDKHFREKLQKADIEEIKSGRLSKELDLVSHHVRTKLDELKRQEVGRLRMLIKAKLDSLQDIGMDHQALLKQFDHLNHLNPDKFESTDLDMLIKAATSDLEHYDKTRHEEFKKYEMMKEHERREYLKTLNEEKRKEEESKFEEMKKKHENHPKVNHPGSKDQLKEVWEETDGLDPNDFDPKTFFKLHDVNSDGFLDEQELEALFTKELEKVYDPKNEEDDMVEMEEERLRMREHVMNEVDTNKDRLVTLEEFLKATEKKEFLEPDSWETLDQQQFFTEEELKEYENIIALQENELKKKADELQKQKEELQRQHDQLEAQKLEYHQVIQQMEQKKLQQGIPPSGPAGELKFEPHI
UniProt Q96E22: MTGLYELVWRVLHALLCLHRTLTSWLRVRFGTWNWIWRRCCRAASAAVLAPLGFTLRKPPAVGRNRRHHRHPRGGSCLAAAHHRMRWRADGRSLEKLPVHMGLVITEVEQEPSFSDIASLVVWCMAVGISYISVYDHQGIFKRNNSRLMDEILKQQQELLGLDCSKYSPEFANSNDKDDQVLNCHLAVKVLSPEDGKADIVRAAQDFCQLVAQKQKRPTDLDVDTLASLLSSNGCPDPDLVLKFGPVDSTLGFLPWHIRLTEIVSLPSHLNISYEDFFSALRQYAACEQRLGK
UniProt Q5SWX8: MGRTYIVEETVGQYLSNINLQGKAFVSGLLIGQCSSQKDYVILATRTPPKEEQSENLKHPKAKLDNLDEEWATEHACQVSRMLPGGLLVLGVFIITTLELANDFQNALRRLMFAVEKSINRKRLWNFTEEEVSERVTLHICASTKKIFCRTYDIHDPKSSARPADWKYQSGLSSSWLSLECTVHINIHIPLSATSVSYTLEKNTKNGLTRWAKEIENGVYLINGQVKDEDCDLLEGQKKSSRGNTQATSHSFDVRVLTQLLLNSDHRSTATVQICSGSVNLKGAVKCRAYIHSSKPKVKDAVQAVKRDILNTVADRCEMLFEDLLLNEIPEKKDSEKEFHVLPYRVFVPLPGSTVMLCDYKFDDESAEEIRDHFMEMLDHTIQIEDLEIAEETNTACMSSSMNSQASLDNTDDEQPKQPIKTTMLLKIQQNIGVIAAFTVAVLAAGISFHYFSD
UniProt O43929: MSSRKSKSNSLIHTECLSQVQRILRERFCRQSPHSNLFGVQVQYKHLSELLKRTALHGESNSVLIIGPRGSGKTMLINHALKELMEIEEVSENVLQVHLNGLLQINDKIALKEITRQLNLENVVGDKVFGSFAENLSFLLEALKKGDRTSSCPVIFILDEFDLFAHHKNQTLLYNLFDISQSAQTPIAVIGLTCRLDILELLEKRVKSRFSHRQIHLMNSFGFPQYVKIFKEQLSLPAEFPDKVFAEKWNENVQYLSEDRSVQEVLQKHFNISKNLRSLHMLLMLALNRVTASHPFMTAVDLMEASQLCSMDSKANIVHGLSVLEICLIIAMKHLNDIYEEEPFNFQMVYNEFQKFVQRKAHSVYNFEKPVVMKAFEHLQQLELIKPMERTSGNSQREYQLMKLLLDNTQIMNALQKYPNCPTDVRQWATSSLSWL
UniProt Q9BRJ7: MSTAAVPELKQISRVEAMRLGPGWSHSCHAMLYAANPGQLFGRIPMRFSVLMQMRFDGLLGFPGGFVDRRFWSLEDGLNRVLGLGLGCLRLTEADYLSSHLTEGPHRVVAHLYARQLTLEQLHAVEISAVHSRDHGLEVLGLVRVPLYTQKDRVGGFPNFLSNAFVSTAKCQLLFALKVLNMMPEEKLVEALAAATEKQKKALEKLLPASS
UniProt P00480: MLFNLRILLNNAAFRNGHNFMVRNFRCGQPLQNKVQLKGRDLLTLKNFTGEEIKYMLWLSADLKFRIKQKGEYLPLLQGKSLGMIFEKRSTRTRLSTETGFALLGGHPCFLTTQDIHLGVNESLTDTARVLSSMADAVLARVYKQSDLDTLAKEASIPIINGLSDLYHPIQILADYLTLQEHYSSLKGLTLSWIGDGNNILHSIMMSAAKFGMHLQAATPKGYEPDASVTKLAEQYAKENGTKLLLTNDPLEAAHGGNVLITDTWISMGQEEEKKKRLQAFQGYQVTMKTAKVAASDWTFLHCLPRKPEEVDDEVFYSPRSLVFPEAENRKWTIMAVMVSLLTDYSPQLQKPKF
UniProt Q96FW1, whole entry, looked up: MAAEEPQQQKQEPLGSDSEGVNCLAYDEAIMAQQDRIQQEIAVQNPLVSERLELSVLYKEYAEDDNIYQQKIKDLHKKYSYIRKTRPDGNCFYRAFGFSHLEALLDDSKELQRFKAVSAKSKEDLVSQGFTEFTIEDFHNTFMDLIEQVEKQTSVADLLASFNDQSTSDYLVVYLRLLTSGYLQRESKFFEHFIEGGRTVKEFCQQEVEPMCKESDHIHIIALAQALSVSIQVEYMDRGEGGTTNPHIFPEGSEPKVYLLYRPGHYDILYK
UniProt Q9NV35: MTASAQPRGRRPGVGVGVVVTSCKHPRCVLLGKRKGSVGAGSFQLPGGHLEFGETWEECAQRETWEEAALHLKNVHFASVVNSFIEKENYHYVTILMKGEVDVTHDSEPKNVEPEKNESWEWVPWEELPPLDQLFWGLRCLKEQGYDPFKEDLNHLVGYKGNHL
UniProt P53384: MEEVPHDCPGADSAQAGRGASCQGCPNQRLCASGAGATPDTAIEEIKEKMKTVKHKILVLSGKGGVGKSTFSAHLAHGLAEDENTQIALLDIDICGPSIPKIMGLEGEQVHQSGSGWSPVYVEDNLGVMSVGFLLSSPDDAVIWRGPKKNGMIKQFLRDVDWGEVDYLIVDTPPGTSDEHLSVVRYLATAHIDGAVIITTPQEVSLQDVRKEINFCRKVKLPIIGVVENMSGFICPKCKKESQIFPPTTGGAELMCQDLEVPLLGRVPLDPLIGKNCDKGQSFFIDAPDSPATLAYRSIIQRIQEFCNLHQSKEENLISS
UniProt Q8WUM0: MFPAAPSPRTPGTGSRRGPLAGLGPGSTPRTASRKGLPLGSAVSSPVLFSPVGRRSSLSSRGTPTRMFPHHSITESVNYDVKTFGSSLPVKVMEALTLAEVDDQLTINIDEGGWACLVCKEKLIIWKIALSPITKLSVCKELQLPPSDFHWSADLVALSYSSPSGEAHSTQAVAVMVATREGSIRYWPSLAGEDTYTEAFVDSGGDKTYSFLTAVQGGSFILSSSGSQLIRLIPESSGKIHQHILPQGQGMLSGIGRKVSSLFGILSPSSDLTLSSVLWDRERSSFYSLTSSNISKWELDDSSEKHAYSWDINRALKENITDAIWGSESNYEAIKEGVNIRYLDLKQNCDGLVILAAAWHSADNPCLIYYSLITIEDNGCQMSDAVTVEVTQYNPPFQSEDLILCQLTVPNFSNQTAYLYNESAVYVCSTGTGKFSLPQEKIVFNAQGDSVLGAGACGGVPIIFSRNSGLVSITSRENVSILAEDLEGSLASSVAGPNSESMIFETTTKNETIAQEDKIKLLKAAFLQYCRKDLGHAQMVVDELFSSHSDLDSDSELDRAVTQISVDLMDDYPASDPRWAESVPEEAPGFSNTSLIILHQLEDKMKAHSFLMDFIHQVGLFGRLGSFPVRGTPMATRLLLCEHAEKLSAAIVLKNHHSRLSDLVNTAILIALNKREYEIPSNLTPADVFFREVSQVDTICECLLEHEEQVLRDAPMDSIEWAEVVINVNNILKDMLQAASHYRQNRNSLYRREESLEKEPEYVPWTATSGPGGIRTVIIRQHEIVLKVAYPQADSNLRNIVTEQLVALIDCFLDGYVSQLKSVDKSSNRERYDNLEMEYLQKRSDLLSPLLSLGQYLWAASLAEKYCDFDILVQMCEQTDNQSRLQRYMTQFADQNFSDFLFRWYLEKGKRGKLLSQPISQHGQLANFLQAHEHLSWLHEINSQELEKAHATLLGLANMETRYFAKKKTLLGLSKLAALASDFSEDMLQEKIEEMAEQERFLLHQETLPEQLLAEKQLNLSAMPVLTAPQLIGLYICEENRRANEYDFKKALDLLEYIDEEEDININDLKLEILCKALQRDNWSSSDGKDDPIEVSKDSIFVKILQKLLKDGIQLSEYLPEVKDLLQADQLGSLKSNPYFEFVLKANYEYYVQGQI
UniProt A8MXV4: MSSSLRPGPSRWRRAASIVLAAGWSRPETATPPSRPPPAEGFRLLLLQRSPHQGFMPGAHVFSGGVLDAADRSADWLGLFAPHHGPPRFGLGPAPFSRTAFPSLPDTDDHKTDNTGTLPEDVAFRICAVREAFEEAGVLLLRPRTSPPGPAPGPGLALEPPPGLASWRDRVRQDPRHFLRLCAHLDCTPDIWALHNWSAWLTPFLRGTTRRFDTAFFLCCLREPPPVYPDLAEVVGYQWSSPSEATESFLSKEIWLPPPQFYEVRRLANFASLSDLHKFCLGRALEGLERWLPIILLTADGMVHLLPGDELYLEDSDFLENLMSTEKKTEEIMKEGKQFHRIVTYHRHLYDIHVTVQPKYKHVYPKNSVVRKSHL

Tests used:
Test in all cases: log2 fold change, soluble protein after heating vs DMSO (PISA); higher = thermal stabilisation; K562 cells, 10 uM, 30 min; active = over 0.2 and 3.5 SD of the protein, either way, in both replicates (recomputed)
[1] = compound: COC1=CC=C(C=C1)CN2C=CC3=C2C=C(C=C3)C(=O)NO
Procedure, shortened: (§1)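 Soluble protein was defined as the supernatant after 21,000xg for 90 min. It came from K562 cells at 2×10^6 cells/mL given 10 μM compound for 30 min, heated in aliquots for 3 min across 48°C-58°C, pooled, and extracted in PBS with 0.5% NP-40 at 4°C, and was quantified by TMTpro 16plex LC-MS/MS with equalised channel sums. Thermal stability against control samples, from duplicates, is reported as log2 fold change.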

filanesib = compound: CON(C)C(=O)N1N=C(c2cc(F)ccc2F)S[C@@]1(CCCN)c1ccccc1 [filanesib]
Procedure, shortened: as §1

zotarolimus = compound: CO[C@H]1C[C@@H]2CC[C@@H](C)[C@@](O)(O2)C(=O)C(=O)N2CCCC[C@H]2C(=O)O[C@H]([C@H](C)C[C@@H]2CC[C@H](n3cnnn3)[C@H](OC)C2)CC(=O)[C@H](C)/C=C(\C)[C@@H](O)[C@@H](OC)C(=O)[C@H](C)C[C@H](C)/C=C/C=C/C=C/1C [zotarolimus]
Procedure, shortened: as §1

idasanutlin = compound: COc1cc(C(=O)O)ccc1NC(=O)[C@@H]1N[C@@H](CC(C)(C)C)[C@](C#N)(c2ccc(Cl)cc2F)[C@H]1c1cccc(Cl)c1F [idasanutlin]
Procedure, shortened: as §1

alisertib = compound: COc1cc(Nc2ncc3c(n2)-c2ccc(Cl)cc2C(c2c(F)cccc2OC)=NC3)ccc1C(=O)O [alisertib]
Procedure, shortened: as §1

[2] = compound: COc1cc2nc(-c3cc(F)ccc3O)nc(N[C@@H]3CNC[C@H]3C(C)(C)O)c2cc1OC
Procedure, shortened: as §1

gefitinib = compound: COc1cc2ncnc(Nc3ccc(F)c(Cl)c3)c2cc1OCCCN1CCOCC1 [gefitinib]
Procedure, shortened: as §1

[3] = compound: COc1cccc2cc(-c3nc([C@H]4CC[C@H](C(=O)O)CC4)n4ncnc(N)c34)[nH]c12
Procedure, shortened: as §1

lapatinib = compound: CS(=O)(=O)CCNCc1ccc(-c2ccc3ncnc(Nc4ccc(OCc5cccc(F)c5)c(Cl)c4)c3c2)o1 [lapatinib]
Procedure, shortened: as §1

pictilisib = compound: CS(=O)(=O)N1CCN(Cc2cc3nc(-c4cccc5[nH]ncc45)nc(N4CCOCC4)c3s2)CC1 [pictilisib]
Procedure, shortened: as §1

[4] = compound: CS(=O)(=O)c1ccc(-c2cnc(N)c(C(=O)Nc3ccccc3)n2)cc1
Procedure, shortened: as §1

crizotinib = compound: C[C@@H](Oc1cc(-c2cnn(C3CCNCC3)c2)cnc1N)c1c(Cl)ccc(F)c1Cl [crizotinib]
Procedure, shortened: as §1

[5] = compound: C[C@@H]1COCCN1C2=NC(=NC(=C2)C3(CC3)S(=O)(=O)C)C4=C5C=CNC5=CC=C4
Procedure, shortened: as §1

[6] = compound: C[C@H](C1=CC=C(C=C1)C(=O)NC2=C3C=CNC3=NC=C2)N
Procedure, shortened: as §1

duvelisib = compound: C[C@H](Nc1ncnc2nc[nH]c12)c1cc2cccc(Cl)c2c(=O)n1-c1ccccc1 [duvelisib]
Procedure, shortened: as §1

gandotinib = compound: Cc1cc(Nc2cc(CN3CCOCC3)c3nc(C)c(Cc4ccc(Cl)cc4F)n3n2)n[nH]1 [gandotinib]
Procedure, shortened: as §1

tozasertib = compound: Cc1cc(Nc2cc(N3CCN(C)CC3)nc(Sc3ccc(NC(=O)C4CC4)cc3)n2)n[nH]1 [tozasertib]
Procedure, shortened: as §1

[7] = compound: Cc1cc(SCc2sc(-c3ccc(C(F)(F)F)cc3)nc2C)ccc1OCC(=O)O
Procedure, shortened: as §1

doramapimod = compound: Cc1ccc(-n2nc(C(C)(C)C)cc2NC(=O)Nc2ccc(OCCN3CCOCC3)c3ccccc23)cc1 [doramapimod]
Procedure, shortened: as §1

ispinesib = compound: Cc1ccc(C(=O)N(CCCN)[C@@H](c2nc3cc(Cl)ccc3c(=O)n2Cc2ccccc2)C(C)C)cc1 [ispinesib]
Procedure, shortened: as §1

Measured: log2 fold change

NUP153 (UniProt P49790)
inactive: [1] 0.01 | filanesib 0.072 | zotarolimus -0.016 | idasanutlin 0.124 | alisertib -0.043 | [2] -0.05 | gefitinib -0.01 | [3] 0.06 | lapatinib 0.008 | pictilisib -0.075 | [4] 0.042 | crizotinib -0.009 | [5] -0.043 | [6] -0.012 | duvelisib -0.041 | gandotinib 0.083 | tozasertib 0.029 | [7] -0.055 | doramapimod -0.002 | ispinesib -0.013

NUTF2 (UniProt P61970)
inactive: [1] 0.028 | filanesib -0.006 | zotarolimus 0.003 | idasanutlin 0.003 | alisertib -0.055 | [2] -0.097 | gefitinib 0.084 | [3] 0.034 | lapatinib -0.006 | pictilisib -0.031 | [4] -0.01 | crizotinib 0.054 | [5] 0.204 | [6] -0.142 | duvelisib 0.162 | gandotinib 0.161 | tozasertib 0.05 | [7] -0.029 | doramapimod -0.01 | ispinesib 0.128

P4HA1 isoform 2 (UniProt P13674)
inactive: [1] -0.198 | filanesib 0.187 | zotarolimus 0 | idasanutlin 0.115 | alisertib -0.155 | [2] 0.059 | gefitinib -0.004 | [3] -0.047 | lapatinib 0.045 | pictilisib 0.002 | [4] 0.066 | crizotinib 0.045 | [5] -0.024 | [6] 0.154 | duvelisib 0.032 | gandotinib 0.136 | tozasertib 0.035 | [7] 0.098 | doramapimod 0.004 | ispinesib -0.014

NUCB2 (UniProt P80303)
inactive: [1] -0.011 | filanesib -0.007 | zotarolimus -0.063 | idasanutlin -0.008 | alisertib -0.045 | [2] 0.025 | gefitinib 0.01 | [3] 0.038 | lapatinib -0.033 | pictilisib 0.029 | [4] 0.014 | crizotinib 0.062 | [5] -0.001 | [6] -0.026 | duvelisib 0.003 | gandotinib 0.014 | tozasertib -0.021 | [7] -0.059 | doramapimod -0.007 | ispinesib 0.019

NUS1 (UniProt Q96E22)
inactive: [1] 0.119 | filanesib 0.005 | zotarolimus -0.02 | idasanutlin -0.113 | alisertib 0.008 | [2] 0.057 | gefitinib 0.023 | [3] 0.016 | lapatinib -0.06 | pictilisib 0.03 | [4] -0.045 | crizotinib 0.073 | [5] 0.004 | [6] 0.012 | duvelisib 0.077 | gandotinib -0.058 | tozasertib 0.025 | [7] 0.034 | doramapimod -0.004 | ispinesib 0.043

NTPCR (UniProt Q9BSD7)
inactive: [1] 0.109 | filanesib -0.107 | zotarolimus 0 | idasanutlin -0.055 | alisertib -0.084 | [2] -0.051 | gefitinib -0.027 | [3] 0.018 | lapatinib -0.049 | pictilisib 0.074 | [4] 0.049 | crizotinib -0.165 | [5] 0.05 | [6] -0.019 | duvelisib 0.037 | gandotinib -0.155 | tozasertib -0.02 | [7] -0.021 | doramapimod 0.037 | ispinesib -0.054

ODR4 (UniProt Q5SWX8)
inactive: [1] -0.023 | filanesib 0.02 | zotarolimus 0.02 | idasanutlin -0.022 | alisertib -0.018 | [2] 0.157 | gefitinib 0.037 | [3] -0.05 | lapatinib 0.024 | pictilisib 0.074 | [4] 0.073 | crizotinib -0.028 | [5] -0.009 | [6] 0.055 | duvelisib 0.002 | gandotinib 0.035 | tozasertib 0.025 | [7] 0.084 | doramapimod 0.01 | ispinesib 0.03

ORC4 (UniProt O43929)
inactive: [1] 0.039 | filanesib -0.086 | zotarolimus 0.041 | idasanutlin -0.033 | alisertib 0.069 | [2] -0.058 | gefitinib -0.002 | [3] 0.029 | lapatinib -0.01 | pictilisib 0.02 | [4] -0.002 | crizotinib -0.241 | [5] 0.141 | [6] -0.035 | duvelisib -0.012 | gandotinib -0.121 | tozasertib -0.041 | [7] 0.103 | doramapimod -0.03 | ispinesib 0.006

NUDT16L1 (UniProt Q9BRJ7)
inactive: [1] -0.03 | filanesib 0.019 | zotarolimus -0.017 | idasanutlin -0.089 | alisertib -0.087 | [2] 0.061 | gefitinib -0.009 | [3] -0.003 | lapatinib -0.002 | pictilisib 0.026 | [4] -0.023 | crizotinib -0.007 | [5] 0.069 | [6] -0.037 | duvelisib 0.025 | gandotinib -0.158 | tozasertib -0.027 | [7] 0.032 | doramapimod 0.044 | ispinesib 0.067

OTC (UniProt P00480)
inactive: [1] -0.304 | filanesib 0.03 | zotarolimus -0.209 | idasanutlin -0.019 | alisertib 0.618 | [2] 0.285 | gefitinib 0.038 | [3] 0.237 | lapatinib -0.381 | pictilisib 0.259 | [4] 0 | crizotinib 0.038 | [5] 0.147 | [6] 0.346 | duvelisib 0.25 | gandotinib -0.115 | tozasertib -0.119 | [7] -0.088 | doramapimod 0.006 | ispinesib -0.166

OTUB1 (UniProt Q96FW1)
inactive: [1] 0.044 | filanesib -0.064 | zotarolimus 0.036 | idasanutlin -0.041 | alisertib -0.09 | [2] -0.021 | gefitinib -0.019 | [3] 0.024 | lapatinib 0.012 | pictilisib -0.011 | [4] 0.003 | crizotinib -0.111 | [5] 0.033 | [6] -0.075 | duvelisib 0.007 | gandotinib -0.086 | tozasertib -0.012 | [7] 0.021 | doramapimod -0.035 | ispinesib 0.082

NUDT15 (UniProt Q9NV35)
inactive: [1] 0.017 | filanesib -0.024 | zotarolimus 0.036 | idasanutlin -0.078 | alisertib -0.005 | [2] 0.008 | gefitinib 0.005 | [3] 0.02 | lapatinib 0.015 | pictilisib 0.299 | [4] 0.049 | crizotinib 0.038 | [5] 0.099 | [6] -0.077 | duvelisib 0.054 | gandotinib -0.074 | tozasertib -0.025 | [7] 0.015 | doramapimod -0.026 | ispinesib 0.091

NUBP1 (UniProt P53384)
inactive: [1] -0.022 | filanesib -0.028 | zotarolimus -0.007 | idasanutlin -0.106 | alisertib -0.013 | [2] 0.068 | gefitinib 0.002 | [3] 0.027 | lapatinib -0.047 | pictilisib 0.012 | [4] 0.064 | crizotinib 0.029 | [5] 0.11 | [6] -0.05 | duvelisib 0.049 | gandotinib -0.037 | tozasertib -0.01 | [7] 0.076 | doramapimod 0.022 | ispinesib -0.008

NUP133 (UniProt Q8WUM0)
inactive: [1] -0.075 | filanesib 0.27 | zotarolimus 0.042 | idasanutlin 0.212 | alisertib -0.081 | [2] 0.006 | gefitinib -0.062 | [3] -0.045 | lapatinib -0.029 | pictilisib -0.066 | [4] 0.035 | crizotinib -0.098 | [5] -0.085 | [6] 0.097 | duvelisib 0.017 | gandotinib 0.043 | tozasertib 0.031 | [7] 0 | doramapimod 0.062 | ispinesib -0.114

NUDT19 (UniProt A8MXV4)
inactive: [1] 0.027 | filanesib 0.02 | zotarolimus 0.026 | idasanutlin -0.037 | alisertib -0.056 | [2] 0.058 | gefitinib 0.036 | [3] 0.029 | lapatinib -0.014 | pictilisib 0.039 | [4] 0.041 | crizotinib 0.109 | [5] 0.087 | [6] -0.093 | duvelisib 0.066 | gandotinib 0.058 | tozasertib 0.017 | [7] 0.058 | doramapimod -0.056 | ispinesib 0.15

OMA1 (UniProt Q96E52)
inactive: [1] 0.087 | filanesib -0.046 | zotarolimus -0.019 | idasanutlin -0.046 | alisertib -0.064 | [2] -0.101 | gefitinib -0.009 | [3] -0.033 | lapatinib -0.007 | pictilisib 0.126 | [4] 0.121 | crizotinib 0.027 | [5] 0.006 | [6] -0.023 | duvelisib 0.036 | gandotinib -0.172 | tozasertib -0.049 | [7] 0.029 | doramapimod -0.067 | ispinesib -0.018

Retrieved one by one from the entries so far, 2 records:
NUBP1 (UniProt P53384)
inactive: [1] -0.022 | filanesib -0.028 | zotarolimus -0.007 | idasanutlin -0.106 | alisertib -0.013 | [2] 0.068 | gefitinib 0.002 | [3] 0.027 | lapatinib -0.047 | pictilisib 0.012 | [4] 0.064 | crizotinib 0.029 | [5] 0.11 | [6] -0.05 | duvelisib 0.049 | gandotinib -0.037 | tozasertib -0.01 | [7] 0.076 | doramapimod 0.022 | ispinesib -0.008

NUDT15 (UniProt Q9NV35)
inactive: [1] 0.017 | filanesib -0.024 | zotarolimus 0.036 | idasanutlin -0.078 | alisertib -0.005 | [2] 0.008 | gefitinib 0.005 | [3] 0.02 | lapatinib 0.015 | pictilisib 0.299 | [4] 0.049 | crizotinib 0.038 | [5] 0.099 | [6] -0.077 | duvelisib 0.054 | gandotinib -0.074 | tozasertib -0.025 | [7] 0.015 | doramapimod -0.026 | ispinesib 0.091
